According to publication PMC7226122:
No constants are given. Whether binding was seen depends on the method and setting. Binding seen in cells or lysates may run through a third protein. Binding can be weak; no strength is given.

Sequences of proteins named here, by UniProt entry; tags and fusion partners are left off. A change or cut given only in a name is not applied to a line headed by its entry.
UniProt Q13153: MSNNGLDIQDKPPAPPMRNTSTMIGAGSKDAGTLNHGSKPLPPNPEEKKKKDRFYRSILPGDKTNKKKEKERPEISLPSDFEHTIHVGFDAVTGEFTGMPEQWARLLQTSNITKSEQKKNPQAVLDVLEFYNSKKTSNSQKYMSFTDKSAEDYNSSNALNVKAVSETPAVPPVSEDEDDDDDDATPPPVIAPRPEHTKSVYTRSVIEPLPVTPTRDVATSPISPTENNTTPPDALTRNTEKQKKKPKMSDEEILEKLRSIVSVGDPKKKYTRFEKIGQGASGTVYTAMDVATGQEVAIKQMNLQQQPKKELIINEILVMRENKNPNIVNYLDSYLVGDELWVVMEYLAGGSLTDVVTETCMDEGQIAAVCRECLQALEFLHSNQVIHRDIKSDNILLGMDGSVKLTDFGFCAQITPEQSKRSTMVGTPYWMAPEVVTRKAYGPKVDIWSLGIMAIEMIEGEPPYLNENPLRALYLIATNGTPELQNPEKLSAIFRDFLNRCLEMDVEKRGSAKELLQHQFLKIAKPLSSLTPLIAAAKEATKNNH
UniProt P60953: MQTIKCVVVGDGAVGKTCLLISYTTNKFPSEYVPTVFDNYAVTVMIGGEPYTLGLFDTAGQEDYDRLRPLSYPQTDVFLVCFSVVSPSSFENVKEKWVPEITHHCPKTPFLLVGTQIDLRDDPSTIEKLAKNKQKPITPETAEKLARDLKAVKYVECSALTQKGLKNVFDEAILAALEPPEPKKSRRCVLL

Molecular target: GST-PAK1-PBD (GST-conjugated Rac/Cdc42 (p21) binding domain from PAK1) (UniProt Q13153)
Assay: pull-down; 20 ug GST-PAK1-PBD with glutathione resin incubated with total protein of cell lysate at 4 C for 1 h; resin washed with lysis buffer, eluted with 2x SDS sample buffer with 200 mM dithiothreitol; immunoblotting; U251 IDH1 WT or IDH1-mutated cells; only the target purified

For “Cell division control protein 42 homolog (Cdc42), active form (from UniProt P60953 1-191)”, the binding was “binds”.
